No constants are given. Whether binding was seen depends on the method and setting. Binding seen in cells or lysates may run through a third protein. Some binding calls cover weakened binding; strength is not graded here.
Target: T1, thiazide-sensitive sodium-chloride cotransporter (NCC) (mouse (endogenous in renal cortical tubules)) (UniProt P59158)
T1 sequence: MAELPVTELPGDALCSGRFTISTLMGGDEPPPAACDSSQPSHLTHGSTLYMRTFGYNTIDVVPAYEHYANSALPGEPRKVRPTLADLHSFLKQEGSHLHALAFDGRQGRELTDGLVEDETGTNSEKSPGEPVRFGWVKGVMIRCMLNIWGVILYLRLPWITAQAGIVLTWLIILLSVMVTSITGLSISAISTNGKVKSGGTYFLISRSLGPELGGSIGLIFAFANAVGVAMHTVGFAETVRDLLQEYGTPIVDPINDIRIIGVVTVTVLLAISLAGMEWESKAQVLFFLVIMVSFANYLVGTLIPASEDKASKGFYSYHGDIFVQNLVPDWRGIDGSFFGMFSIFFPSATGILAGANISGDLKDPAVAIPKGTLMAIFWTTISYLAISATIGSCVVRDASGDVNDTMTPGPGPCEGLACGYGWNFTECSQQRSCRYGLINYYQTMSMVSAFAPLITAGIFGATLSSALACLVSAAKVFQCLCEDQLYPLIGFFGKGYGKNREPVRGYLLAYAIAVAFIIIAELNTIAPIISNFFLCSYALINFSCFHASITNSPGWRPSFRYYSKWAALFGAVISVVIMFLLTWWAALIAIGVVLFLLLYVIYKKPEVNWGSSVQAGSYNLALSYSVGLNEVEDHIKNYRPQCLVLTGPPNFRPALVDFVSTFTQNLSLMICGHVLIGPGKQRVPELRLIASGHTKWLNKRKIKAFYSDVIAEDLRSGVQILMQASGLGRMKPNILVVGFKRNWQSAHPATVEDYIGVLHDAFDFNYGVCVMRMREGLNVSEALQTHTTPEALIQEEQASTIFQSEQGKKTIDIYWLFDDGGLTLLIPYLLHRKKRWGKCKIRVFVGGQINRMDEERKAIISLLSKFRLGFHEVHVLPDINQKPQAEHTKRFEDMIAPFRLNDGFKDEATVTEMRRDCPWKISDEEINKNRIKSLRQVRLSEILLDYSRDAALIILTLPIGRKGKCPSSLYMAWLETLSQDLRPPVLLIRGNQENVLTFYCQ
Experiment: co-IP; lysates of mouse renal cortical tubules grown in control (3.5 mM K+) or high K+ (8.0 mM K+) medium; lysis buffer 20 mM Tris, 135 mM NaCl, 1% Triton, 5 mM EDTA pH 7.4; 5 ug rabbit NCC antibody or 1 ug PP1α antibody with protein A-agarose or G plus-agarose, 4 °C overnight; immunoblot

By UniProt entry, the sequences of proteins in these tests, tags left out.
UniProt P62137: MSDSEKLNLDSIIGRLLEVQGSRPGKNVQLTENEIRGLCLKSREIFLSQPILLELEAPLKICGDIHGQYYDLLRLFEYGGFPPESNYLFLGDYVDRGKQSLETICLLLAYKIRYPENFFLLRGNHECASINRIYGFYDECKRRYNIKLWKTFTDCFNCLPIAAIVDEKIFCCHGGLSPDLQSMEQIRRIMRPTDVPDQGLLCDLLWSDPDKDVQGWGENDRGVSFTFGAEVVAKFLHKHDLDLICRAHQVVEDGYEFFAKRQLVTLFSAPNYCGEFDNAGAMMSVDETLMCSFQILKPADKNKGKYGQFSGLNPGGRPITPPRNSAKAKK

## protein phosphatase 1α (PP1α), alpha isoform of the PP1 catalytic subunit (from UniProt P62137 1-330) (enzyme)
  binding: binds

— article PMC8318901
